Common to all, as to assay: log2 fold change, soluble protein after heating vs DMSO (PISA); higher = thermal stabilisation; K562 cells, 10 uM, 30 min; active = over 0.2 and 3.5 SD of the protein, either way, in both replicates (recomputed)
Compound in test [1]: CN1CCN(CCOc2cc(OC3CCOCC3)c3c(Nc4c(Cl)ccc5c4OCO5)ncnc3c2)CC1 [saracatinib]
In a few lines: (§1)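 Values are thermal stability changes relative to control samples and are taken from duplicates. They are stated as log2 fold changes. Before quantification by TMTpro 16plex LC-MS/MS with equalised channel sums, K562 cells at 2×10^6 cells/mL were treated with 10 μM compound for 30 min, heated in aliquots for 3 min across 48°C-58°C, pooled, extracted in PBS with 0.5% NP-40 at 4°C, and centrifuged at 21,000xg for 90 min to give the soluble supernatant.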

Sequences of proteins named here, by UniProt entry; tags and fusion partners are left off. A change or cut given only in a name is not applied to a line headed by its entry.
UniProt Q8IX12: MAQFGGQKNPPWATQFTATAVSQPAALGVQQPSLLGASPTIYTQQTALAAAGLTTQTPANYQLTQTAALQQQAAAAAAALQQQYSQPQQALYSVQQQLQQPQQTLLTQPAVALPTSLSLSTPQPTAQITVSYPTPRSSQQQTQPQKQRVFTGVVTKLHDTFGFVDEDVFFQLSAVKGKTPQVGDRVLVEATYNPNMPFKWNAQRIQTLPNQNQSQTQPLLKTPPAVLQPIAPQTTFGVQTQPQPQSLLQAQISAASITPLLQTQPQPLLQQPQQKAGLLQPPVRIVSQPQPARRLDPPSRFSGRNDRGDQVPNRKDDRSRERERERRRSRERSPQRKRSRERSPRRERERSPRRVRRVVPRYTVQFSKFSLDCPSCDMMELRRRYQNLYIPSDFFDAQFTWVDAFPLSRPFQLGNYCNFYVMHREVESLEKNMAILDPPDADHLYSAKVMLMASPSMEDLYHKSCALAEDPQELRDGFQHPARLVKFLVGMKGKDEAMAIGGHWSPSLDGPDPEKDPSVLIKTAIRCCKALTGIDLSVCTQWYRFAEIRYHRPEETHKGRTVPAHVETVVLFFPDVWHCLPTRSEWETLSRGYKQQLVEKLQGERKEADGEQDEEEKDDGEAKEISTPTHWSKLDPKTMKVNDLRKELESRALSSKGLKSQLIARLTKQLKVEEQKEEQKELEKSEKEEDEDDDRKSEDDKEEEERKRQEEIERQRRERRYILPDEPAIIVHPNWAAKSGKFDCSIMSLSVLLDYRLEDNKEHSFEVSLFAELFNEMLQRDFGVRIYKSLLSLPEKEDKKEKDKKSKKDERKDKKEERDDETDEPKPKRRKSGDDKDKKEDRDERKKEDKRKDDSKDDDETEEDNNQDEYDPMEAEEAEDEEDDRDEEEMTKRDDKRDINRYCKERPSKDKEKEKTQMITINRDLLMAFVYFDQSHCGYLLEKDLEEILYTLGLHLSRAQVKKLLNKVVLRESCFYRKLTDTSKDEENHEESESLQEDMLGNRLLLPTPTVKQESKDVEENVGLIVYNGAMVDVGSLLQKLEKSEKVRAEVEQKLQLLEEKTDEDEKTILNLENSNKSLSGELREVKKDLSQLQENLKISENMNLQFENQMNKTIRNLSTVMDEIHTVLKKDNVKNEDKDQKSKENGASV
UniProt Q5M9N0: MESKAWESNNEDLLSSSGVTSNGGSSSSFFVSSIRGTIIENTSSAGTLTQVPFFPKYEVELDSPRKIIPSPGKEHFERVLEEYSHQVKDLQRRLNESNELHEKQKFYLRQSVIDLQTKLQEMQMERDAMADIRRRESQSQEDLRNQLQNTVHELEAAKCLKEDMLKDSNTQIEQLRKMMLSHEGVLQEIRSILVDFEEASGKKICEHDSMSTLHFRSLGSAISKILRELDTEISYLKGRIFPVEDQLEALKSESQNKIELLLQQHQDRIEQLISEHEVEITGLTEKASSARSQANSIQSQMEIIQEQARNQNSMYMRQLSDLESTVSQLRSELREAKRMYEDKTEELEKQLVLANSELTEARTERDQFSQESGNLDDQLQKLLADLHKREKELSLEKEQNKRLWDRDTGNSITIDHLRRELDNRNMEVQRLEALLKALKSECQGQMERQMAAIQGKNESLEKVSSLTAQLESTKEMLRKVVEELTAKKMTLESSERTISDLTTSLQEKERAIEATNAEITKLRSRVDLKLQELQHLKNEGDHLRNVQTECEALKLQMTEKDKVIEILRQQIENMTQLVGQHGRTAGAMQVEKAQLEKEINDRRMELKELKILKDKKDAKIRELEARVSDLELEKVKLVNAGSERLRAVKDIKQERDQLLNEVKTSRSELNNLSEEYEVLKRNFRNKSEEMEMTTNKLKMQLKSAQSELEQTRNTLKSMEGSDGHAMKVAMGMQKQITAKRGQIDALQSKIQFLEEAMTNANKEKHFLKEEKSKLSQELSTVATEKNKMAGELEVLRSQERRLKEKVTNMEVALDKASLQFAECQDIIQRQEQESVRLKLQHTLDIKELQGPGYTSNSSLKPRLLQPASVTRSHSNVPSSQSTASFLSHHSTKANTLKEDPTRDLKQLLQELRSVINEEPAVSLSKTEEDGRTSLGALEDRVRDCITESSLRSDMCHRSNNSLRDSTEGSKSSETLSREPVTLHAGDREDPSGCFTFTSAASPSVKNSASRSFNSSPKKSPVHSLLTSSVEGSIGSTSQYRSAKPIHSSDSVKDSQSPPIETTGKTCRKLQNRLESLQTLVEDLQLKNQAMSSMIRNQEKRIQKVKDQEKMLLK
UniProt Q8IWY9: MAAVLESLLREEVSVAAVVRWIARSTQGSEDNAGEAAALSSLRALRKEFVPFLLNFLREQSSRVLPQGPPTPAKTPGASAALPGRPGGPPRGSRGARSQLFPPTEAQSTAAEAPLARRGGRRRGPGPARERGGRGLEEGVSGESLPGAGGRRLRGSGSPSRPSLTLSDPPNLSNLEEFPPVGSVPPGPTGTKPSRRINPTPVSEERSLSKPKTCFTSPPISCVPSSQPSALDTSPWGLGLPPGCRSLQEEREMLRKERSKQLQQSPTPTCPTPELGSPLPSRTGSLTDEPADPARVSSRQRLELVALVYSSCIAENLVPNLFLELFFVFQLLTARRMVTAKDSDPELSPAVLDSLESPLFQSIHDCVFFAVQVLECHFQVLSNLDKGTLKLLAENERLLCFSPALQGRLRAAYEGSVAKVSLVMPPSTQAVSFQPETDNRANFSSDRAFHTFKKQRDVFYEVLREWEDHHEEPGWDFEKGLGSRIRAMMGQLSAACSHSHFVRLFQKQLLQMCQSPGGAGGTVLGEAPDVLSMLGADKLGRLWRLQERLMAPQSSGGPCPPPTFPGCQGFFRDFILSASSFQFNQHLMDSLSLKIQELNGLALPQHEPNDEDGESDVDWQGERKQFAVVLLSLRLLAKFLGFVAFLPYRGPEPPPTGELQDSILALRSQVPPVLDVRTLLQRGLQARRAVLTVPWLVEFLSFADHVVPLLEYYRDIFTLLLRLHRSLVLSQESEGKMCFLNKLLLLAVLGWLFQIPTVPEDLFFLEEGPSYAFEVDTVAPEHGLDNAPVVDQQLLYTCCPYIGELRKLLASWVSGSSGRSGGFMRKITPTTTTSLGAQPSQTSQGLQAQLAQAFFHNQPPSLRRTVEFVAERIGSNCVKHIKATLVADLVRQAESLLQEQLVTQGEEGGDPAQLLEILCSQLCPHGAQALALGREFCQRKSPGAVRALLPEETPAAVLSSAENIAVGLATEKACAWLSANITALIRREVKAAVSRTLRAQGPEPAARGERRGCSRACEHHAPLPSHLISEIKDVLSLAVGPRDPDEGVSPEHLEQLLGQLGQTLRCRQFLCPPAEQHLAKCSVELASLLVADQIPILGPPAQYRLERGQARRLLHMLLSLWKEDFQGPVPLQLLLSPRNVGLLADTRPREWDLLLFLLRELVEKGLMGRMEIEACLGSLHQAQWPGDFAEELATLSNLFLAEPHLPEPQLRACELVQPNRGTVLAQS
UniProt P08174: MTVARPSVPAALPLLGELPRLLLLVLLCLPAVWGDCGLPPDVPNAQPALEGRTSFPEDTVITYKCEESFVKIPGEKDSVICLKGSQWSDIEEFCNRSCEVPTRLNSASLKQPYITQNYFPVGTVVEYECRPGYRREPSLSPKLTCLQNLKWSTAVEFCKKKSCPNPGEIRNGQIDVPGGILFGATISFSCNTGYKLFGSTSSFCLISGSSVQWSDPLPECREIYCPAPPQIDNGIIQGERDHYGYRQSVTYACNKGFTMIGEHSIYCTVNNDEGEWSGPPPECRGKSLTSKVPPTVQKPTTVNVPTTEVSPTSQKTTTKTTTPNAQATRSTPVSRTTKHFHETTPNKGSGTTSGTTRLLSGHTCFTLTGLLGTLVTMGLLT
UniProt Q7L3B6: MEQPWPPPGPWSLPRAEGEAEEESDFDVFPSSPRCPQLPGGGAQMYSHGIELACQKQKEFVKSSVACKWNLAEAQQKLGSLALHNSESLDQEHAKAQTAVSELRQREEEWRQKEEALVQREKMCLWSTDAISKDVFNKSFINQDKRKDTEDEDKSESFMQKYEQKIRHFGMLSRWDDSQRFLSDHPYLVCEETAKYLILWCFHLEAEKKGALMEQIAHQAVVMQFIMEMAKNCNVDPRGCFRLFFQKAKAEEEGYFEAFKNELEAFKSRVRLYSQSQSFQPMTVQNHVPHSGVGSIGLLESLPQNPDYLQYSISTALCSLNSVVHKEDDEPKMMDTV
UniProt Q9P0B6: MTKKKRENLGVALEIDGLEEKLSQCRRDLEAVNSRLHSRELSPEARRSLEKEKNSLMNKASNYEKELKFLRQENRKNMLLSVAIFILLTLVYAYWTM
UniProt Q14790: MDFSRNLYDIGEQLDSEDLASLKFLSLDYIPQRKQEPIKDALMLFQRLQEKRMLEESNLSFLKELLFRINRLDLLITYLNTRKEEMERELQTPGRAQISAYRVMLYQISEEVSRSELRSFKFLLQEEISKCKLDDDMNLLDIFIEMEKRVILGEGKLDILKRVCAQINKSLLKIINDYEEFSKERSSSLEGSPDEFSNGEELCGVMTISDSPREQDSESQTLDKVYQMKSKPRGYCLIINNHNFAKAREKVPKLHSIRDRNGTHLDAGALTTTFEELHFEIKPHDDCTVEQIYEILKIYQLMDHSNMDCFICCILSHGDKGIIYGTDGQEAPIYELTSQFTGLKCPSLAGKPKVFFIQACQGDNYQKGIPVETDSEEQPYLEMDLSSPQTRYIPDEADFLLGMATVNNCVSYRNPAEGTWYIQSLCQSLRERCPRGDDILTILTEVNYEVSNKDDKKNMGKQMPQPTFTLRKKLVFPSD
UniProt Q8NHZ8, whole entry, looked up: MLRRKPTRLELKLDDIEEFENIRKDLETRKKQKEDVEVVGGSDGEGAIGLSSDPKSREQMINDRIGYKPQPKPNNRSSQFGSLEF
UniProt Q6NZI2: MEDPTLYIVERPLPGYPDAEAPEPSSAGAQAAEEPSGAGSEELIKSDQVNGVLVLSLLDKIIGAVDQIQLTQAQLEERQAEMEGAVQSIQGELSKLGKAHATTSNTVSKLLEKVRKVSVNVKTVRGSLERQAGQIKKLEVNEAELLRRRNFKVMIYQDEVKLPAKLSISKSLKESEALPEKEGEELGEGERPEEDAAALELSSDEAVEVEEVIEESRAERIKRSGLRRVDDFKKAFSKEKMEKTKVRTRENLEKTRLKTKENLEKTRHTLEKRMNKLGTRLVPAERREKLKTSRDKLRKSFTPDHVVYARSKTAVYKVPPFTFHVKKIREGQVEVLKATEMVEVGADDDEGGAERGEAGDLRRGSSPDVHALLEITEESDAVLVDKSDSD
UniProt P24863: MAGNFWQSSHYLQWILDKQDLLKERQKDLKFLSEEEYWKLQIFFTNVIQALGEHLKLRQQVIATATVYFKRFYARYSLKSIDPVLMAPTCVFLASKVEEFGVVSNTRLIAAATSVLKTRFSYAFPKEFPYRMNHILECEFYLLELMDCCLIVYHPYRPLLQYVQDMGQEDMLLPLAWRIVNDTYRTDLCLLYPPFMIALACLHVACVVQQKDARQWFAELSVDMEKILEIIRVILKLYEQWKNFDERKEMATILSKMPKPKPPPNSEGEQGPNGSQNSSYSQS
UniProt O75909: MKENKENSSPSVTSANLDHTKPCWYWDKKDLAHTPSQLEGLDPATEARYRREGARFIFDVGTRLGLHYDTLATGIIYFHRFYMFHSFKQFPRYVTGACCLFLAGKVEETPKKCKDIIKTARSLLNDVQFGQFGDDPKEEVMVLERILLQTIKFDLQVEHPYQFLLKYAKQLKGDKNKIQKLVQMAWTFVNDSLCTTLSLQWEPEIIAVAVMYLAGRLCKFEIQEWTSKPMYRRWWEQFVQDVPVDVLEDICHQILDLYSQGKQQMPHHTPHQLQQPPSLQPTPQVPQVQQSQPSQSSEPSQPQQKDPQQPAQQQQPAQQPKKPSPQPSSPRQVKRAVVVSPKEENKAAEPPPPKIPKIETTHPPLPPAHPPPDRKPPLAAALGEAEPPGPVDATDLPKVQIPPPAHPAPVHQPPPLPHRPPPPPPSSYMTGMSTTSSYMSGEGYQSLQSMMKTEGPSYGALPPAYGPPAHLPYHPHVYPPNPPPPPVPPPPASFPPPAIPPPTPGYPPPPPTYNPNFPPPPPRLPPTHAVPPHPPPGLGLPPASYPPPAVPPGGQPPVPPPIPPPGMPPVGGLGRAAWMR
UniProt P15529: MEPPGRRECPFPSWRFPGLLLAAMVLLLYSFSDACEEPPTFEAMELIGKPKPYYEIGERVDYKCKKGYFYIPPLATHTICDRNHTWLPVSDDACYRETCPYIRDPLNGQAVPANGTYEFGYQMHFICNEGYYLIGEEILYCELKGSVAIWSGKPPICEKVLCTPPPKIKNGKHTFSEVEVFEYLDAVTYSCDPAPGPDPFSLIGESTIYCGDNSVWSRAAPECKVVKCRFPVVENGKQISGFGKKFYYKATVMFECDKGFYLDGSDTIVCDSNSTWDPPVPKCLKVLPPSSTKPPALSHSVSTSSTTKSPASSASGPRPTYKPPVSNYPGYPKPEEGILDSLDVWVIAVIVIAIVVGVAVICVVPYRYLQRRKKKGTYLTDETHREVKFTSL

Compound in test [2]: CN1CCN(c2nc(C3=C(c4c[nH]c5ccccc45)C(=O)NC3=O)c3ccccc3n2)CC1 [sotrastaurin]
In outline: as §1

Compound in test [3]: CN1CCc2c(c3ccccc3n2Cc2ccc(C(=O)NO)cc2)C1 [Tubastatin A]
In outline: as §1

Compound in test [4]: CNC(=O)C1=CC=CC=C1NC2=NC(=NC=C2Cl)NC3=C(C=C(C=C3)N4CCOCC4)OC
In a few lines:
as §1

Compound in test [5]: CNC(=O)c1ccc(Nc2ncc(C(F)(F)F)c(NCc3nccnc3N(C)S(C)(=O)=O)n2)cc1 [defactinib]
In a few lines:
as §1

Compound in test [6]: CNCc1ccc(-c2[nH]c3cc(F)cc4c3c2CCNC4=O)cc1 [rucaparib]
In a few lines: as §1

Compound in test [7]: CNc1nc(-c2ccc3c(N)n[nH]c3c2)cc(N2C[C@@H](C(=O)NC3CCCCC3)CC[C@H]2C)n1
In a few lines:
as §1

Compound in test [8]: COC(=O)N[C@@H](C)CNc1nccc(-c2cn(C(C)C)nc2-c2cc(Cl)cc(NS(C)(=O)=O)c2F)n1 [encorafenib]
In outline:
as §1

Compound in test [9]: COC(=O)[C@H](CCSC)NC(=O)C1=C(C=C(C=C1)NC[C@H](CS)N)C2=CC=CC=C2
In outline: as §1

Compound in test [10]: CN1CC[C@H](c2c(O)cc(O)c3c(=O)cc(-c4ccccc4Cl)oc23)[C@H](O)C1 [alvocidib]
In outline: as §1

Some of the results follow.

For CCAR1 (UniProt Q8IX12), the log2 fold change in test [1] is inactive: -0.038; in [2] it was inactive: -0.027; in [3] it was inactive: -0.001; in test [4] it was inactive: -0.039; in test [5] it was inactive: -0.021; in [6], inactive: 0.026. Also, the figures for the log2 fold change in test [7], in [8] and in test [9] were inactive: 0.086, inactive: -0.005 and inactive: -0.033, respectively.
For CCDC158 (UniProt Q5M9N0), the log2 fold change in test [1] was inactive: 0.034; in [2], inactive: 0.087; in test [10], inactive: 0.373; in [4] it was inactive: 0.081; in [5] it was inactive: 0.167; in test [7], inactive: 0.007. Also, the log2 fold change in test [9] is inactive: 0.098.
Take CDAN1 (UniProt Q8IWY9): the log2 fold change is inactive: -0.012 in test [1]; inactive: -0.03 in [2]; inactive: 0.009 in test [3]; inactive: -0.029 in test [4]; inactive: 0.024 in test [5]; inactive: 0.085 in [6]. In addition, the figures for the log2 fold change in test [7], in test [8] and in test [9] were inactive: -0.006, inactive: 0.005 and inactive: 0.112, respectively.
CD33 (UniProt P20138): the log2 fold change in test [1] was inactive: 0.094; in [2], inactive: 0.128; in test [3] it was inactive: -0.07; in [4], inactive: -0.043; in test [5], inactive: -0.034; in test [6] it was inactive: 0.057. Further, the log2 fold change in test [7] was inactive: 0.001; in test [8], inactive: 0.079; in [9], inactive: 0.081.
For the target CD55 isoform 7 (UniProt P08174), the log2 fold change in [1] is inactive: 0.06; in [2] it was inactive: -0.01; in test [3] it was inactive: 0.033; in test [4], inactive: 0.012; in [5] it was inactive: 0.007; in [6], inactive: 0.022. For the same target, the log2 fold change is inactive: 0.028 in test [7], inactive: -0.016 in test [8] and inactive: 0.039 in test [9].
With CDC37L1 (UniProt Q7L3B6), the log2 fold change is inactive: -0.003 in test [1]; inactive: 0.021 in [2]; active: -0.308 in test [3]; inactive: 0.002 in [4]; inactive: 0.059 in [5]; inactive: -0.058 in test [6]. The values for the log2 fold change in test [7], in test [8] and in test [9] were inactive: -0.013, inactive: 0.005 and inactive: 0.018, respectively.
CCDC167 (UniProt Q9P0B6): the log2 fold change is inactive: -0.05 in test [1]; inactive: -0.018 in test [2]; inactive: -0.063 in [3]; inactive: -0.006 in test [4]; inactive: 0.021 in test [6]; inactive: 0.104 in test [7]. Further, in [8], the log2 fold change was inactive: -0.037.
Take CASP8 isoform 9 (UniProt Q14790): the log2 fold change in [1] is inactive: -0.032; in [2], inactive: -0.019; in [3], inactive: 0.115; in [4] it was inactive: 0.053; in test [5] it was inactive: -0.1; in [6], inactive: 0.011. Further, the log2 fold change in test [7] is inactive: 0.04; in test [8] it was inactive: 0.044; in test [9], inactive: 0.037.
For the target CDC26 (UniProt Q8NHZ8), the log2 fold change in test [1] was inactive: 0.032; in test [2], inactive: -0.022; in test [3], inactive: 0; in test [4] it was inactive: -0.032; in [5], inactive: -0.11; in test [6], inactive: 0.112. The log2 fold change was inactive: -0.013 in test [7], inactive: -0.051 in [8] and inactive: -0.234 in test [9].
On to CCNB1 (UniProt P14635), for which the log2 fold change in test [1] is inactive: -0.005; in [2] it was inactive: 0.02; in test [3], inactive: -0.018; in test [4], inactive: -0.051; in [5] it was inactive: -0.065; in test [6] it was inactive: -0.025. In addition, the log2 fold change in test [7] was inactive: -0.034; in [8], inactive: -0.002; in [9], inactive: 0.035.
Turning to CAVIN1 (UniProt Q6NZI2), the log2 fold change in [1] is inactive: -0.065; in test [2] it was inactive: -0.053; in [3] it was inactive: 0.159; in test [4], inactive: -0.015; in [5], inactive: 0.226; in [6] it was inactive: 0.098. Also, the log2 fold change in test [7] is inactive: 0.119; in test [8] it was inactive: 0.122; in [9], inactive: 0.034.
CCNC (UniProt P24863): the log2 fold change was inactive: 0.057 in [1]; inactive: -0.057 in test [2]; active: 0.6 in test [10]; inactive: 0.008 in test [4]; inactive: -0.047 in test [5]; inactive: -0.028 in test [7]. In addition, the log2 fold change in [9] is inactive: 0.001.
Take CBX1 (UniProt P83916): the log2 fold change in test [1] was inactive: 0.073; in test [2], inactive: -0.037; in [3] it was inactive: 0.035; in test [4] it was inactive: -0.018; in test [5] it was inactive: -0.143; in test [6] it was inactive: -0.01. For the same target, the log2 fold change in test [7] was inactive: -0.02; in test [8] it was inactive: -0.043; in test [9], inactive: 0.
As to CCNK isoform 4 (UniProt O75909), the log2 fold change was inactive: -0.072 in test [1]; inactive: 0.135 in test [2]; inactive: 0.057 in [3]; inactive: -0.147 in [4]; inactive: 0.043 in test [5]; inactive: 0.066 in [6]. Besides, the values for the log2 fold change in [7], in [8] and in test [9] were inactive: -0.019, inactive: 0.029 and inactive: 0.003, respectively.
Regarding CD109 (UniProt Q6YHK3), the log2 fold change in test [1] is inactive: 0.376; in test [5], inactive: -0.421; in test [7], inactive: 0.14; in test [9] it was inactive: 0.026.
Take CD46 (UniProt P15529): the log2 fold change in [1] is inactive: -0.038; in [2], inactive: -0.017; in test [5] it was inactive: 0.108; in test [7] it was inactive: 0.08; in test [9] it was inactive: -0.115.

(Values after the supplement of paper PMC10849652.)
